# Reference: US20060257938A1, “Method of screening for drugs that block ligand binding to a lipid binding protein” (priority 2005, published 2006)
# Changes are numbered by the printed parent chain.
# B1: 18V 31V 73I 72A (protein, listed as Rattus norvegicus)
# chain: AFDGTWKVDRNENYEKFVEKMGINVVKRKLVAHDNLKLTITQEGNKFTVKESSNFRNIDVVFELGVDFAYSAIDGTELTGTWTMEGNKLVGKFKRVDNGKELIAVREISGNELIQTYTYEGVEAKRIFKKE
# modifications: PEPTIDE (1)...(131) wild-type rat intestinal fatty acid binding protein
# B2: 18I 55G 73M 72A (protein, listed as Rattus norvegicus)
# chain: B1 chain with V18I, V31G, F55G, I73M
# modifications: PEPTIDE (1)...(131) wild-type rat intestinal fatty acid binding protein
# B3: 119M, 72A (protein, listed as Rattus norvegicus)
# chain: B1 chain with V18M, V31G, I73A, Y119M
# modifications: PEPTIDE (1)...(131) wild-type rat intestinal fatty acid binding protein
# B4: 18I 31L 73G 72A (protein, listed as Rattus norvegicus)
# chain: B1 chain with V18I, V31L, I73G
# modifications: PEPTIDE (1)...(131) wild-type rat intestinal fatty acid binding protein
# B5: 18G 31F 73L 72A (protein, listed as Rattus norvegicus)
# chain: B1 chain with V18G, V31F, I73L
# modifications: PEPTIDE (1)...(131) wild-type rat intestinal fatty acid binding protein
# B6: 14L 18L 73W 117S 72A (protein, listed as Rattus norvegicus)
# chain: B1 chain with Y14L, V18L, V31G, I73W, Y117S
# modifications: PEPTIDE (1)...(131) wild-type rat intestinal fatty acid binding protein
# B7: 38W 106H 117A 72A (protein, listed as Rattus norvegicus)
# chain: B1 chain with V18M, V31G, L38W, I73A, R106H, Y117A
# modifications: PEPTIDE (1)...(131) wild-type rat intestinal fatty acid binding protein
# B8: 14Q 18S 73I 117W 72A (protein, listed as Rattus norvegicus)
# chain: B1 chain with Y14Q, V18S, V31G, Y117W
# modifications: PEPTIDE (1)...(131) wild-type rat intestinal fatty acid binding protein
# B9: 14M 72M 117A (protein, listed as Rattus norvegicus)
# chain: B1 chain with Y14M, V18M, V31G, A72M, I73A, Y117A
# modifications: PEPTIDE (1)...(131) wild-type rat intestinal fatty acid binding protein
# B10: 78F, 72A (protein, listed as Rattus norvegicus)
# chain: B1 chain with V18M, V31G, I73A, L78F
# modifications: PEPTIDE (1)...(131) wild-type rat intestinal fatty acid binding protein
# B11: 38M, 72A (protein, listed as Rattus norvegicus)
# chain: B1 chain with V18M, V31G, L38M, I73A
# modifications: PEPTIDE (1)...(131) wild-type rat intestinal fatty acid binding protein
# B12: 14L 31W 117V 72A (protein, listed as Rattus norvegicus)
# chain: B1 chain with Y14L, V18M, V31W, I73A, Y117V
# modifications: PEPTIDE (1)...(131) wild-type rat intestinal fatty acid binding protein
# B13: 18I 31L 72A (protein, listed as Rattus norvegicus)
# chain: B1 chain with V18I, V31L, I73A
# modifications: PEPTIDE (1)...(131) wild-type rat intestinal fatty acid binding protein
# B14: 18V 31Y 55I 73G 72A (protein, listed as Rattus norvegicus)
# chain: B1 chain with V31Y, F55I, I73G
# modifications: PEPTIDE (1)...(131) wild-type rat intestinal fatty acid binding protein
# B15: 62P, 72A (protein, listed as Rattus norvegicus)
# chain: B1 chain with V18M, V31G, F62P, I73A
# modifications: PEPTIDE (1)...(131) wild-type rat intestinal fatty acid binding protein
# B16: 36V, 72A (protein, listed as Rattus norvegicus)
# chain: B1 chain with V18M, V31G, L36V, I73A
# modifications: PEPTIDE (1)...(131) wild-type rat intestinal fatty acid binding protein
# B17: 36I, 72A (protein, listed as Rattus norvegicus)
# chain: B1 chain with V18M, V31G, L36I, I73A
# modifications: PEPTIDE (1)...(131) wild-type rat intestinal fatty acid binding protein
# B18: 38Q, 72A (protein, listed as Rattus norvegicus)
# chain: B1 chain with V18M, V31G, L38Q, I73A
# modifications: PEPTIDE (1)...(131) wild-type rat intestinal fatty acid binding protein
# B19: 38S, 72A (protein, listed as Rattus norvegicus)
# chain: B1 chain with V18M, V31G, L38S, I73A
# modifications: PEPTIDE (1)...(131) wild-type rat intestinal fatty acid binding protein
# B20: 14W 72M 117A (protein, listed as Rattus norvegicus)
# chain: B1 chain with Y14W, V18M, V31G, A72M, I73A, Y117A
# modifications: PEPTIDE (1)...(131) wild-type rat intestinal fatty acid binding protein
# B21: 31Q, 72A (protein, listed as Rattus norvegicus)
# chain: B1 chain with V18M, V31Q, I73A
# modifications: PEPTIDE (1)...(131) wild-type rat intestinal fatty acid binding protein
# B22: 31V, 72A (protein, listed as Rattus norvegicus)
# chain: B1 chain with V18M, I73A
# modifications: PEPTIDE (1)...(131) wild-type rat intestinal fatty acid binding protein
# B23: 38T, 72A (protein, listed as Rattus norvegicus)
# chain: B1 chain with V18M, V31G, L38T, I73A
# modifications: PEPTIDE (1)...(131) wild-type rat intestinal fatty acid binding protein
# B24: 23W, 72A (protein, listed as Rattus norvegicus)
# chain: B1 chain with V18M, I23W, V31G, I73A
# modifications: PEPTIDE (1)...(131) wild-type rat intestinal fatty acid binding protein
# Assay: Baseline fluorescence ratio Ro of probe in absence of analyte
# Settings: baseline fluorescence ratio of probe
row,Molecule,Ro
1,B1,0.329
2,B2,0.303
3,B3,0.343
4,B4,0.367
5,B5,0.225
6,B6,0.562
7,B7,0.414
8,B8,0.487
9,B9,0.305
10,B10,0.219
11,B11,0.261
12,B12,0.259
13,B13,0.310
14,B14,0.383

# Same assay, conditions: baseline fluorescence ratio of probe, no fatty acid
row,Molecule,Ro
1,B15,0.216
2,B16,0.330
3,B17,0.250
4,B6,0.562
5,B18,0.204
6,B7,0.414
7,B19,0.311
8,B20,0.322
9,B8,0.487
10,B21,0.376
11,B22,0.613
12,B12,0.259
13,B23,0.297
14,B14,0.383
15,B24,0.449
